PubChem BioAssay AID1259308 | NCATS – 2017
The whole screen tested about 59,000 reagents; below is a part drawn at random. About 1,510 of all reagents (2.6%) count as active. 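Calls use total luciferase alone and ignore viability, so some active siRNAs may act by altering cell number.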 Reagents against one gene are numbered here. Further read-outs or replicates are left out here. No sequences are given here.

Screen: 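Knock-downs that increase output of a recombinant reporter protein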 (primary screen)
Cell system: human HEK293 embryonic kidney cells stably expressing firefly luciferase (HEK-CMV-Luc2-Hygro)
Reagents: single siRNA against human genes, 0.8 pmol siRNA per well
Duration: 72 h
Read-out: 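Reporter luminescence and viable-cell signal on separate replicate plates, given as percent of non-targeting control and median/MAD z-scores, plus per-cell luciferase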
Reading the numbers: total luciferase, z-score: higher = more reporter protein produced
Rule for the call: 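Active when the median/MAD z-score for overall luciferase is greater than 3; a gene was taken forward for validation with new siRNAs if at least two of its three siRNAs passed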
Calls: active = raised luciferase; inactive = no rise

gene | reagent no. | total luciferase, z-score | Outcome
FZR1 | 1 | -0.461 | inactive
FZR1 | 2 | -0.747 | inactive
FZR1 | 3 | 0.416 | inactive
TLE2 | 1 | -1.25 | inactive
TLE2 | 2 | -1.17 | inactive
TLE2 | 3 | 0.443 | inactive
CHRNA9 | 1 | -0.97 | inactive
CHRNA9 | 2 | 0.0232 | inactive
CHRNA9 | 3 | 0.128 | inactive
CHLSN | 1 | 0.567 | inactive
CHLSN | 2 | -0.414 | inactive
CHLSN | 3 | -0.126 | inactive
RGS16 | 1 | 0.569 | inactive
RGS16 | 2 | -0.0145 | inactive
RGS16 | 3 | -0.416 | inactive
IGFBP1 | 1 | 1.49 | inactive
IGFBP1 | 2 | 0.00569 | inactive
IGFBP1 | 3 | -0.102 | inactive
CWC25 | 1 | 0.461 | inactive
CWC25 | 2 | 0.983 | inactive
CWC25 | 3 | 0.848 | inactive
HCN2 | 1 | 1.32 | inactive
HCN2 | 2 | -0.785 | inactive
HCN2 | 3 | -0.683 | inactive
BAGE4 | 1 | 1.32 | inactive
BAGE4 | 2 | -0.493 | inactive
BAGE4 | 3 | 1.18 | inactive
RNASE7 | 1 | 0.398 | inactive
RNASE7 | 2 | 1.48 | inactive
RNASE7 | 3 | -1.4 | inactive
POTEA | 1 | -1.93 | inactive
POTEA | 2 | 1.06 | inactive
POTEA | 3 | -0.242 | inactive
ADCYAP1R1 | 1 | 1.24 | inactive
ADCYAP1R1 | 2 | -0.156 | inactive
ADCYAP1R1 | 3 | -0.527 | inactive
TEX26 | 1 | -0.418 | inactive
TEX26 | 2 | -0.4 | inactive
TEX26 | 3 | -0.898 | inactive
ZNF518A | 1 | -0.561 | inactive
ZNF518A | 2 | 0.472 | inactive
ZNF518A | 3 | 0.93 | inactive
COTL1 | 1 | -1.28 | inactive
COTL1 | 2 | 1.54 | inactive
COTL1 | 3 | 0.216 | inactive
MYB | 1 | 1.15 | inactive
MYB | 2 | 2.25 | inactive
MYB | 3 | 0.341 | inactive
DCLK3 | 1 | 1.99 | inactive
DCLK3 | 2 | 0.837 | inactive
DCLK3 | 3 | -0.65 | inactive
DPY19L2 | 1 | 4.88 | active
DPY19L2 | 2 | 0.112 | inactive
DPY19L2 | 3 | -0.714 | inactive
TMEM236 | 1 | 0.631 | inactive
TMEM236 | 2 | 0.687 | inactive
TMEM236 | 3 | 0.0838 | inactive
SLC27A5 | 1 | -0.604 | inactive
SLC27A5 | 2 | 1.55 | inactive
SLC27A5 | 3 | 3.87 | active
KRTAP8-1 | 1 | 1.63 | inactive
KRTAP8-1 | 2 | -0.419 | inactive
KRTAP8-1 | 3 | -1.59 | inactive
KCNK6 | 1 | 0.0825 | inactive
KCNK6 | 2 | 2.76 | inactive
KCNK6 | 3 | -3 | inactive
CREBBP | 1 | -1.03 | inactive
CREBBP | 2 | -0.318 | inactive
CREBBP | 3 | -0.223 | inactive
CAPN13 | 1 | -0.44 | inactive
CAPN13 | 2 | 0.491 | inactive
CAPN13 | 3 | 0.0387 | inactive
UBXN6 | 1 | -1.76 | inactive
UBXN6 | 2 | -0.69 | inactive
UBXN6 | 3 | 1.73 | inactive

6 of these entries, set out differently.
| gene | reagent no. | total luciferase, z-score | Outcome |
| --- | --- | --- | --- |
| RGS16 | 1 | 0.569 | inactive |
| RGS16 | 2 | -0.0145 | inactive |
| RGS16 | 3 | -0.416 | inactive |
| IGFBP1 | 1 | 1.49 | inactive |
| IGFBP1 | 2 | 0.00569 | inactive |
| IGFBP1 | 3 | -0.102 | inactive |
